# In the supplement of paper PMC11546906:
# Counter-ions that a name gives are not always drawn. The list shows a part of the results. Single values are uncertain here, since repeats match poorly.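 Screen of FDA-approved drugs, each combined with colistin at one-eighth of its MIC, against a multidrug-resistant mcr-1-positive clinical E. coli isolate; growth read as OD600 after 24 h. Bacteria without drug were the growth control and plain broth the blank. A combination counted as active when OD600 fell below 0.2.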
# System: Escherichia coli 42 (mcr-1-positive clinical isolate)
# Assay: OD600 after 24 h growth with compound plus colistin (absorbance units (OD600)); higher = more bacterial growth (less inhibition)
# Details: first compound 25 µM; colistin concentration 0.5 ug/mL; incubation time 24 h; 37 °C
row,Structure (SMILES),OD600
1,Nc1ncn([C@@H]2O[C@H](CO)[C@@H](O)[C@H]2O)c(=O)n1 [5-Azacytidine] + CCC(C)CCCC(=O)N[C@@H](CCN)C(=O)N[C@H](C(=O)N[C@@H](CCN)C(=O)N[C@H]1CCNC(=O)[C@H]([C@@H](C)O)NC(=O)[C@H](CCN)NC(=O)[C@H](CCN)NC(=O)[C@H](CC(C)C)NC(=O)[C@@H](CC(C)C)NC(=O)[C@H](CCN)NC1=O)[C@@H](C)O [colistin],inactive: 0.478
2,CCCCCNC(=N)N/N=C/c1c[nH]c2ccc(OC)cc12 [Tegaserod maleate] + CCC(C)CCCC(=O)N[C@@H](CCN)C(=O)N[C@H](C(=O)N[C@@H](CCN)C(=O)N[C@H]1CCNC(=O)[C@H]([C@@H](C)O)NC(=O)[C@H](CCN)NC(=O)[C@H](CCN)NC(=O)[C@H](CC(C)C)NC(=O)[C@@H](CC(C)C)NC(=O)[C@H](CCN)NC1=O)[C@@H](C)O [colistin],inactive: 1.02
3,CN(C)CCOC(c1ccccc1)c1ccccc1.Cn1c(=O)c2[nH]c(Cl)nc2n(C)c1=O [Dimenhydrinate] + CCC(C)CCCC(=O)N[C@@H](CCN)C(=O)N[C@H](C(=O)N[C@@H](CCN)C(=O)N[C@H]1CCNC(=O)[C@H]([C@@H](C)O)NC(=O)[C@H](CCN)NC(=O)[C@H](CCN)NC(=O)[C@H](CC(C)C)NC(=O)[C@@H](CC(C)C)NC(=O)[C@H](CCN)NC1=O)[C@@H](C)O [colistin],inactive: 0.942
4,CCC1=C(C)CN(C(=O)NCCc2ccc(S(=O)(=O)NC(=O)N[C@H]3CC[C@H](C)CC3)cc2)C1=O [Glimepiride] + CCC(C)CCCC(=O)N[C@@H](CCN)C(=O)N[C@H](C(=O)N[C@@H](CCN)C(=O)N[C@H]1CCNC(=O)[C@H]([C@@H](C)O)NC(=O)[C@H](CCN)NC(=O)[C@H](CCN)NC(=O)[C@H](CC(C)C)NC(=O)[C@@H](CC(C)C)NC(=O)[C@H](CCN)NC1=O)[C@@H](C)O [colistin],inactive: 0.968
